Cleaved PARP after 72 h of treatment

Values as published with doi:10.1371/journal.pone.0140310, rounded.

Drug key:
nilotinib (1 µM): Cc1cn(-c2cc(NC(=O)c3ccc(C)c(Nc4nccc(-c5cccnc5)n4)c3)cc(C(F)(F)F)c2)cn1
GSK650394 (0.8 µM): O=C(O)c1ccc(-c2c[nH]c3ncc(-c4ccccc4)cc23)cc1C1CCCC1
GSK0660 (5 µM): COC(=O)c1sccc1S(=O)(=O)Nc1ccc(Nc2ccccc2)cc1OC
MK-2206 (2 µM): NC1(c2ccc(-c3nc4ccn5c(=O)[nH]nc5c4cc3-c3ccccc3)cc2)CCC1
NVP-BEZ235 (0.02 µM): Cn1c(=O)n(-c2ccc(C(C)(C)C#N)cc2)c2c3cc(-c4cnc5ccccc5c4)ccc3ncc21
lenalidomide (5 µM): Nc1cccc2c1CN(C1CCC(=O)NC1=O)C2=O (stereo not drawn)
BMS-536924 (1 µM): Cc1cc(N2CCOCC2)cc2[nH]c(-c3c(NC[C@@H](O)c4cccc(Cl)c4)cc[nH]c3=O)nc12
tozasertib (0.03 µM): Cc1cc(Nc2cc(N3CCN(C)CC3)nc(Sc3ccc(NC(=O)C4CC4)cc3)n2)n[nH]1
CP-690550 (5 µM): C[C@@H]1CCN(C(=O)CC#N)C[C@@H]1N(C)c1ncnc2[nH]ccc12
IMD-0354 (0.08 µM): O=C(Nc1cc(C(F)(F)F)cc(C(F)(F)F)c1)c1cc(Cl)ccc1O

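The test systems are human melanoma cell lines, treated with a pair of drugs for 72 h and then stained and imaged. The read-out is the fraction of cleaved-PARP-positive nuclei, in % of that fraction in the DMSO control; 200 means twice the control level of this apoptosis marker. Concentrations were fixed for each drug; these are the higher of two levels. No replicate spread is given; individual values may be noisy. The marker varies much from line to line, for technical or biological reasons.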
Only some of the drugs and lines screened are listed, without regard to their results.
A dash means that no value is listed here.

Drugs | WM1745 | SK-MEL-30 | A2058
BMS-536924 and lenalidomide | 199 | 143 | 84.0
GSK0660 and BMS-536924 | 156 | 56.9 | 153
GSK0660 and GSK650394 | 131 | 68.8 | 114
tozasertib and IMD-0354 | 114 | 116 | 159
MK-2206 and CP-690550 | 618 | 221 | 137
IMD-0354 and BMS-536924 | 149 | 104 | 113
IMD-0354 and nilotinib | 248 | 107 | 74.1
GSK0660 and CP-690550 | 99.6 | 120 | 66.2
GSK0660 and lenalidomide | 85.0 | 120 | 111
GSK650394 and MK-2206 | 91.9 | 98.3 | 98.2
tozasertib and NVP-BEZ235 | 152 | 114 | 209
GSK0660 and IMD-0354 | - | 47.6 | 109
CP-690550 and tozasertib | 141 | 105 | 189
MK-2206 and nilotinib | 88.5 | 103 | 73.8
GSK650394 and BMS-536924 | 165 | 113 | 122
GSK650394 and nilotinib | 104 | 49.2 | 110
NVP-BEZ235 and CP-690550 | 319 | 218 | 57.5
nilotinib and GSK0660 | - | 103 | 69.5
CP-690550 and BMS-536924 | 128 | 84.5 | 98.9
GSK650394 and tozasertib | 104 | 47.5 | 114
lenalidomide and tozasertib | 149 | 63.7 | 146
NVP-BEZ235 and GSK0660 | - | 230 | 224
nilotinib and lenalidomide | 120 | 130 | 69.5
NVP-BEZ235 and lenalidomide | 90.5 | 89.6 | 197
CP-690550 and nilotinib | 97.0 | 67.0 | 130
nilotinib and BMS-536924 | 170 | 72.7 | 269
BMS-536924 and NVP-BEZ235 | 144 | 166 | 130
CP-690550 and GSK650394 | 81.0 | 48.3 | 78.2
MK-2206 and IMD-0354 | 109 | 72.9 | 90.8
nilotinib and NVP-BEZ235 | 107 | 94.9 | 122
lenalidomide and GSK650394 | 173 | 70.3 | 97.9
NVP-BEZ235 and MK-2206 | 133 | 115 | 419
tozasertib and GSK0660 | - | 217 | 165
lenalidomide and CP-690550 | 195 | 76.7 | 91.0
GSK650394 and NVP-BEZ235 | 161 | 125 | 219
IMD-0354 and GSK650394 | 90.4 | 69.9 | 173
MK-2206 and GSK0660 | - | 247 | 98.0
CP-690550 and IMD-0354 | 166 | 64.2 | 136

Some entries from above, unchanged:

Drugs,WM1745,SK-MEL-30,A2058
lenalidomide and CP-690550,195,76.7,91.0
NVP-BEZ235 and lenalidomide,90.5,89.6,197
GSK0660 and GSK650394,131,68.8,114
CP-690550 and IMD-0354,166,64.2,136
GSK650394 and NVP-BEZ235,161,125,219